## Percent effect of library compounds

From ChEMBL document CHEMBL3988442, “University of Dundee, Small-Polar-MMV Screening Library” (2021).

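Assay of Toxoplasma gondii numbers, read through their beta-galactosidase reporter with a colour substrate. Concentration: 50 µM. The record gives no direction; the compounds picked for IC50 retests had high values, so higher reads as fewer parasites. About 18,000 compounds were tested under these conditions; 0.94% (about 170) showed 50% or more at least once.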

Results are given as percent effect.
How 0% and 100% were set is not recorded. Most values in the screen are low, and negative values occur.
Compounds were drawn at random from those tested, without regard to their results.

Result for Cc1ccc2ncc(CO)cc2c1 was -8.548%. For O=C(Nc1ccc2c(c1)OCO2)N1CCOCC1 the result was -3.838%. With Cc1nc(C)c(CNC(=O)c2ccnnc2)s1 the screen gave -0.5239%. For COCC(C)(C#N)NC(=O)c1ccc(C)cc1F (stereo unspecified) the result was 10.01%. Cc1cccc(C)c1CN(C)S(C)(=O)=O read 0.1083%. With OCCN1CCN(c2ccc3ccccc3n2)CC1 the screen gave -3.956%. For Cc1csc2nc(CSCCS(C)(=O)=O)cc(=O)n12 the result was -14.22%.

Result for O=C(NC1CCCNC1)c1cc2ccccc2o1 (stereo unspecified) was 4.715%. Cc1nc([C@H]2CCCN2)cs1 read 52.58%. CC[C@@]1(O)CCN(C(=O)CCc2cc(Cl)no2)C[C@H]1O read 2.877%. COc1ccccc1CNC(=O)CC(F)(F)F read -4.302%. With CCC(NC(=O)c1cccc(C(C)=O)c1)[C@H]1C[C@H](O)C1 (stereo partly specified) the screen gave 14.54%. With CCO[C@H]1CN(C)C[C@@H]1NC(=O)c1ccc(O)c(C)c1 the screen gave -4.561%. Result for CC(C)COc1ccc(NC(=O)C2CCOC2)cn1 (stereo unspecified) was 10.33%.

Result for Cc1ccccc1NC(=O)CCN1C(=O)CCC1=O was 0%. With CNCC(=O)NCCc1cnn(-c2ccccc2)c1 the screen gave 3.702%. O=C(CCNC(=O)c1ccoc1)Nc1ccc(Cl)cn1 gave -4.476%. N#Cc1cccc(-c2csc(N)n2)c1 read -6.87%. With c1ccc(CN2CCC(N3CCCC3)CC2)nc1 the screen gave -31.67%. Result for OC1(Cn2ccnn2)CCCNC1 (stereo unspecified) was 13.58%. COc1ccc(CN2CC(N3CCOCC3)C2)cn1 read -2.828%.

With O=C(CSCc1ccccc1Cl)NCC1CNCCO1 (stereo unspecified) the screen gave -1.336%. CN(C)CC1CNCCO1 (stereo unspecified) gave -14.23%. For COCCCNc1ccccc1CN1CCOCC1 the result was 8.785%. With Cc1cc(CN2CCc3ncnc(N(C)C)c3C2)no1 the screen gave -1.269%. Result for c1cncc(C2=NCCCC2)c1 was 1.801%. O=S(=O)(CCN1CCn2ccnc2C1)c1ccccc1 gave 3.051%. With COc1cccc(S(=O)(=O)CCN2CCN(C)CC2)c1 the screen gave -17.08%.

Result for CC(=O)c1cc(C(=O)NCCN(C)S(C)(=O)=O)cs1 was 19.27%. Result for CCC(C)NC(=O)c1ccc(CN)cc1 (stereo unspecified) was 3.987%. O=C(Cc1cccc(F)c1)NCCn1ccnc1 read -3.079%. With COCCNC(=O)CN(C)Cc1ccc(C)o1 the screen gave 5.481%. CCc1ccc(CN2C[C@H](O)[C@@H](N3CCCC3)C2)nc1 read 11.24%. CCS(=O)(=O)c1ccc(CNc2ncccc2Cl)cc1 gave -8.966%. With Cn1ncc(N2CCCC(c3nnc[nH]3)C2)c(Cl)c1=O (stereo unspecified) the screen gave 6.549%.

For Cc1nn(CCC(=O)N[C@H]2C[C@@H]3OCC[C@H]23)c(C)c1C the result was -5.478%. With NC(=O)CCC1CCNCC1 the screen gave 19.67%. CC[C@H](C)[C@H](N)CN(C)C read -7.126%. With COc1ncccc1CNS(=O)(=O)C1CC1 the screen gave -18.33%. With Cc1noc(CSc2ccc(C(=O)N3CCC3)cc2)n1 the screen gave -4.742%. For Cn1c(=O)c2[nH]c(N3CCNCC3)nc2n(C)c1=O the result was -30.23%.

Some entries from above, unchanged:

SMILES,effect
c1ccc(CN2CCC(N3CCCC3)CC2)nc1,-31.67
Cc1nc([C@H]2CCCN2)cs1,52.58
CC(=O)c1cc(C(=O)NCCN(C)S(C)(=O)=O)cs1,19.27
OCCN1CCN(c2ccc3ccccc3n2)CC1,-3.956